# Source: publication PMC11121064 (International Journal of Molecular Sciences, 2024)
# What was measured:
# [1] = tested on: human BJ fibroblast cell line; assay: MTT reduction assay, BJ fibroblasts; assay type: cell-based; settings: 72 h
# Description: (§1) The cytotoxic activity was measured against the melanoma A375 tumor cell line (ECACC) and the human BJ fibroblast cell line (ATCC) using an MTT reduction assay. The selectivity index (SI) was calculated using the following formula: SI = IC50 (BJ)/ IC50 (A375).
# (§2) The A375 cell line was purchased from the European Collection of Authenticated Cell Cultures (ECACC, Salisbury, UK) and the BJ human fibroblast cell line from the American Type Culture Collection (ATCC, Manassas, VA, USA). All the cell lines were grown as a monolayer in standard conditions: 37 °C, 100% humidity, under an atmosphere of 5% CO2. The A375 cells were cultured in Dulbecco’s Modified Eagle Medium supplemented with 15% fetal calf serum and 50 IU/mL penicillin/streptomycin. The BJ cell line was grown in EMEM with EBSS, NEAA and sodium pyruvate with L-Glutamine supplemented, 10% fetal bovine serum and 50 IU/mL penicillin/streptomycin.
# (§3) Next, the cells were seeded in 96-well plates at a density of 5000 cells per well and incubated overnight to reach the logarithmic growth phase. […] The absorbance was then measured at 570 nm using a SPECTROstar Nano microplate reader (BMG Biotech Inc., Cary, NC, USA)/Tecan Spark 10M. The mean value from three independent BJ and A375 cell cultures was taken to calculate the cell viability, expressed as a percentage of the control values, i.e., untreated cells assumed as 100%.
# [2] = tested on: melanoma A375 tumor cell line; assay: MTT reduction assay, A375 melanoma cells; assay type: cell-based, human
# Description: as §1
# as §2, with “The A375 cells were cultured in Dulbecco’s Modified Eagle Medium supplemented with 15% fetal calf serum and 50 IU/mL penicillin/streptomycin.” left out
# as §3, with “phase. […] After 72 h, 10 µL of MTT solution (5 g/L) was added into each well and incubated for an additional four hours.” for “phase.”
structure (smiles),measurement,setting,value
"Clc1ccc(COC(Cn2ccnc2)c2ccc(Cl)cc2Cl)c(Cl)c1 (stereo not drawn) [MCZ, miconazole]",IC50,[1],27.1 ± 0.8 µM
same,Selectivity index SI = IC50 (BJ)/ IC50 (A375),"[2]; BJ vs A375, 72 h",2.12
same,IC50,"[2]; Homo sapiens, A-375, MTT, 72 h",12.8 ± 1.1 µM
